Reference: PubChem BioAssay AID1347076 (National Center for Advancing Translational Sciences (NCATS), 2019)
Several values for one entry are separate records, joined by “and”; a condition that tells them apart may be missing. Equal values may be shown once. The campaign covered roughly 400,000 compounds. About 13,000 (3.2%) were called active. Inconclusive means that the source gave no clear call. Such entries were picked first, then a sample of the others. Calls follow the shape of the dose curve; as a rule, active = well fitted cell-killing curve with a large enough effect; inconclusive = small, poorly fitted or top-dose-only effect, or effect the other way; inactive = flat fitted curve, though single readings scatter. A potency beside an inconclusive call is a rough fit, not a confirmed value.

Assay: qHTS assay for MDR1-selective chemotherapeutics: Primary screen using the drug-selected MDR subline cells KB-V1; also: nearly all actives have a fitted effect of over 60% in size
Settings: KB-V1 MDR cells viability, CellTiter-Glo, 72 h; activity change, negative = cytotoxicity: at 46.1 µM (top of the series)
Method in brief: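 In this primary screen, KB-V1 cells overexpressing P-gp are incubated with library compounds (lowest to highest concentration) for 72 h at 37 degrees C before a luminescent ATP viability read.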
% is scaled to controls: 0 for no effect and ±100 for the full control effect; potency is read from the fitted curve at half-maximal effect.

Question: For `c1ccc(CCNc2ncnc3sccc23)nc1`, which Potency is on record?
Answer: inconclusive: 11.6 µM [cytotoxic, partial curve, poor fit]

Question: With `CC1CCN(S(=O)(=O)c2ccc(C(=O)N3CCCC3C(=O)O)cc2)CC1` (centres undefined) as the compound, how does the Potency read?
Answer: inconclusive: 29.1 µM [cytotoxic, single point]

Question: With `O=C(NCc1ccccc1)c1ccc(CSc2nc3cccnc3n2Cc2ccccc2)cc1` as the compound, how does the Potency read?
Answer: inconclusive: 29.1 µM [cytotoxic, single point]

Question: Which “activity change, negative = cytotoxicity” value does the source give for `CSc1ncc2c(=O)[nH]c(-c3ccccc3)nc2n1` here?
Answer: inactive: -1.64%

Question: For `CCOc1ccc(NC(=O)Nc2cccc(C(=O)O)c2)cc1`, which Potency is on record?
Answer: inconclusive: 14.6 µM [cytotoxic, partial curve]

Question: With `CSc1ccccc1NC(=O)CN1CCCCC1` as the compound, how does the “activity change, negative = cytotoxicity” value read?
Answer: inactive: -14.1%

Question: Which Potency does the source give for `O=C(CSc1nnc2scc(-c3ccccc3)n12)N1CCN(Cc2ccccc2)CC1` here?
Answer: active: 5.8 µM

Question: Which “activity change, negative = cytotoxicity” value does the source give for `CC(NCCC(Cc1ccccc1)c1ccco1)c1ccccc1` (centres undefined) here?
Answer: inactive: -17.8%

Question: Which Potency does the source give for `CCN(CC)S(=O)(=O)c1ccc(N2CCOCC2)c(NS(=O)(=O)c2cc(C(C)(C)C)ccc2C)c1` here?
Answer: inconclusive: 32.6 µM [cytotoxic, single point]

Question: With `CC(C)c1ccc(CNc2nc(NCC3CC3)nc3ccsc23)cc1` as the compound, how does the Potency read?
Answer: inconclusive: 23.1 µM [cytotoxic, single point]

Question: For `Cc1cc(C(=O)N/N=C/c2ccc(N(C)C)cc2)c2ccccc2n1`, which Potency is on record?
Answer: inconclusive: 4.11 µM [cytotoxic, full curve, poor fit]

Question: With `Cc1cc(C(=O)OCC(=O)N2C(C)CCCC2C)c(C)o1` (centres undefined) as the compound, how does the Potency read?
Answer: inconclusive: 20.6 µM [cytotoxic, single point]

Question: With `CCOC(=O)Cn1c(S(=O)(=O)Cc2ccccc2Cl)nc(-c2ccccc2)c1-c1ccccc1` as the compound, how does the Potency read?
Answer: inconclusive: 29.1 µM [cytotoxic, single point]

Question: With `COc1cccc2cc(-c3nc4ccc(C)cc4[nH]3)c(=O)oc12` as the compound, how does the “activity change, negative = cytotoxicity” value read?
Answer: inactive: 12.5%

Question: For `C=CCNC(=O)NC(=O)COC(=O)c1cccnc1SC`, which Potency is on record?
Answer: inconclusive: 18.4 µM [rising, single point]

Question: For `O=C(C1CCCCC1)N1CCN(C(=O)C2CCCCC2)CC1`, which Potency is on record?
Answer: inconclusive: 11.6 µM [cytotoxic, partial curve, poor fit]

Question: Which Potency does the source give for `O=C(CCNS(=O)(=O)c1ccc(Cl)cc1)N1CCN(c2ncccn2)CC1` here?
Answer: inconclusive: 11.6 µM [cytotoxic, partial curve]

Question: Which “activity change, negative = cytotoxicity” value does the source give for `O=C(NCc1cccnc1)c1[nH]c(C(F)(F)F)nc1-c1ccccc1` here?
Answer: inactive: 14.3%

Question: With `CCn1c(SCc2nc(-c3ccccc3)no2)nnc1-c1ccco1` as the compound, how does the Potency read?
Answer: inconclusive: 20.6 µM [cytotoxic, single point]

Question: With `Cc1cccc(C)c1NC(=O)c1cc(S(=O)(=O)N2CCC3(CC2)OCCO3)ccc1F` as the compound, how does the Potency read?
Answer: inconclusive: 18.4 µM [cytotoxic, single point]

Question: With `O=C1CCSC2(C(=O)N(Cc3ccccc3)c3ccccc32)N1c1ccccc1` (centres undefined) as the compound, how does the “activity change, negative = cytotoxicity” value read?
Answer: inactive: -12.9%

Question: For `CCOC(=O)C1CCN(C(=S)Nc2cc(OC)c(OC)cc2C(=O)OC)CC1`, which Potency is on record?
Answer: inconclusive: 0.58 µM [rising, partial curve, poor fit]

Question: With `CCOC(=O)c1c(C)n(-c2ccc(C)cc2)c2ccc(O)c(CN(C)C)c12` as the compound, how does the “activity change, negative = cytotoxicity” value read?
Answer: inactive: -5.63%

Question: With `COc1ccc(/C=N/NC(=O)Cc2cc(OC)c(OC)cc2[N+](=O)[O-])cc1` as the compound, how does the Potency read?
Answer: inconclusive: 23.1 µM [cytotoxic, single point]

Question: For `CCc1ccc(N(C(=O)c2snc(C(N)=O)c2N)C(C(=O)NC2CCCC2)c2ccco2)cc1` (centres undefined), which Potency is on record?
Answer: active: 23.1 µM

Question: For `CCCC(=O)N1CCN(c2nnc(-c3ccc(C)cc3)c3ccccc23)CC1`, which Potency is on record?
Answer: inconclusive: 20.6 µM [cytotoxic, partial curve]

Question: With `COc1cc(CN2C[C@@H](CO)O[C@@H](n3cnc4c(NCCCO)ncnc43)C2)cc(OC)c1OC` as the compound, how does the “activity change, negative = cytotoxicity” value read?
Answer: inactive: 2.01%

Question: For `CCCC(=O)OC1=C(C(C)=O)N(Cc2ccccc2)S(=O)(=O)c2ccccc21`, which Potency is on record?
Answer: inconclusive: 0.651 µM [cytotoxic, full curve]

Question: Which “activity change, negative = cytotoxicity” value does the source give for `C=CC[C@@H](Cc1ccc(F)cc1)C(=O)OC[C@H]1CCCN1C(=O)[C@@H](CC=C)CC(=O)N[C@@H](CO)Cc1ccccc1` here?
Answer: inactive: -0.0811%

Question: With `CCN(Cc1ccccc1)C(=S)NC(=O)c1ccccc1Br` as the compound, how does the Potency read?
Answer: inconclusive: 29.1 µM [cytotoxic, single point]

Question: With `c1cncc(CSc2ccc(-c3cccs3)nn2)c1` as the compound, how does the Potency read?
Answer: inconclusive: 18.4 µM [cytotoxic, partial curve]

Question: Which Potency does the source give for `Cc1nc2ccc(NC(=O)c3ccc([N+](=O)[O-])cc3[N+](=O)[O-])cc2s1` here?
Answer: inconclusive: 18.4 µM [cytotoxic, single point]

Question: With `COc1cc(-c2cc(-c3ccc(O)cc3)nc(N)c2C#N)ccc1O` as the compound, how does the Potency read?
Answer: inconclusive: 29.1 µM [cytotoxic, single point]

Question: For `COc1ccc(-c2cc(C(F)(F)F)nc(N3CCCCCC3)n2)cc1`, which “activity change, negative = cytotoxicity” value is on record?
Answer: inactive: 1.52%

Question: Which Potency does the source give for `Cc1ccc(C)c(C(C)NC(=O)c2ccc(Br)o2)c1` (centres undefined) here?
Answer: inconclusive: 18.4 µM [cytotoxic, single point]

Question: For `Cc1onc(-c2c(F)cccc2Cl)c1C(=O)Nc1ccc(Cl)c(S(=O)(=O)N(C)C)c1`, which Potency is on record?
Answer: inconclusive: 32.6 µM [cytotoxic, single point]

Question: Which Potency does the source give for `Cc1cc(Br)ccc1NC(=O)c1ccccc1-c1ccccc1` here?
Answer: active: 13 µM

Question: For `O=C1CSC(=S)N1N=Cc1cccc(OCc2ccccc2)c1`, which “activity change, negative = cytotoxicity” value is on record?
Answer: inactive: 7.92%

Question: With `CCNC(=S)NNC(=O)c1csc2c1CCC(C)C2` (centres undefined) as the compound, how does the Potency read?
Answer: inconclusive: 29.1 µM [cytotoxic, single point]

Question: With `CC(C)c1ccc(NC(=O)Nc2nc(C(N)c3ccccc3Cl)cs2)cc1` (centres undefined) as the compound, how does the Potency read?
Answer: inconclusive: 32.6 µM [cytotoxic, partial curve, poor fit]

Question: For `CCc1cccc(CC)c1NC(=O)/C(C#N)=C/c1ccccc1C(F)(F)F`, which Potency is on record?
Answer: inconclusive: 20.6 µM [cytotoxic, single point]

Question: With `CCCC(=O)N1CCN(c2ccc(NC(=O)c3ccc([N+](=O)[O-])o3)cc2Cl)CC1` as the compound, how does the Potency read?
Answer: inconclusive: 29.1 µM [cytotoxic, single point]

Question: For `COc1ccc(/C=N/NC(=O)C(=O)Nc2ccccn2)cc1OC`, which Potency is on record?
Answer: inconclusive: 11.6 µM [rising, partial curve]

Question: With `Cc1cc2c(c(SCC#N)n1)C(=O)OC2` as the compound, how does the “activity change, negative = cytotoxicity” value read?
Answer: inactive: 0%

Question: With `O=C(Cn1nnc2ccccc21)OCC(=O)c1ccc(Cl)c(Cl)c1` as the compound, how does the Potency read?
Answer: inconclusive: 29.1 µM [rising, single point]

Question: For `COc1cccc(N2CCN(C(=O)C3CCC(=O)N(C4CCCCCC4)C3)CC2)c1` (centres undefined), which Potency is on record?
Answer: inconclusive: 4.11 µM [cytotoxic, partial curve]

Question: For `O=S(=O)(NCCc1cccs1)c1ccc(Br)cc1`, which Potency is on record?
Answer: inconclusive: 32.6 µM [cytotoxic, single point]

Question: With `CCN(Cc1ccccc1)S(=O)(=O)c1ccc(N2CCCCS2(=O)=O)cc1` as the compound, how does the Potency read?
Answer: inconclusive: 29.1 µM [cytotoxic, single point]

Question: For `CCc1nc2ccc(C(=O)NCCCn3ccnc3)cn2c1N(C)Cc1cccs1`, which “activity change, negative = cytotoxicity” value is on record?
Answer: inactive: 2.02%

Question: Which Potency does the source give for `O=C(Nc1ccc(C(=O)N2CCCC2)cc1)c1ccccc1` here?
Answer: inconclusive: 13 µM [cytotoxic, partial curve, poor fit]

Question: Which Potency does the source give for `O=C1N(c2ccccc2)C[C@@H]2C[C@@H](c3cc4ccccc4o3)N3CCC[C@@]123` here?
Answer: inconclusive: 0.517 µM [cytotoxic, full curve, poor fit]

Question: For `CC(=O)c1ccc(NC(=O)CO/N=C(\C)c2cccs2)cc1`, which Potency is on record?
Answer: inconclusive: 16.4 µM [cytotoxic, single point]

Question: With `Cc1ccc(C=NNC(=O)c2cc(-c3cccnc3)nc3ccccc23)o1` as the compound, how does the Potency read?
Answer: inconclusive: 20.6 µM [cytotoxic, single point]

Question: Which Potency does the source give for `Cc1ccc(C)c(NS(=O)(=O)c2cc(C(=O)NCCC3=CCCCC3)ccc2C)c1` here?
Answer: inconclusive: 20.6 µM [cytotoxic, single point]

Question: With `CCN(CC(=O)Nc1ccc2c(c1)OCCO2)C(=O)c1ccc([N+](=O)[O-])s1` as the compound, how does the Potency read?
Answer: inconclusive: 18.4 µM [cytotoxic, single point]

Question: Which Potency does the source give for `Cc1ccc(C(=O)N2CCN(S(=O)(=O)c3sc(C(=O)O)c(C)c3C(=O)O)CC2)s1` here?
Answer: inconclusive: 18.4 µM [rising, single point]

Question: Which “activity change, negative = cytotoxicity” value does the source give for `COc1ccc(C(=O)Nc2nc(-c3nnn(-c4cc(OC)ccc4OC)c3C)ns2)cc1` here?
Answer: inactive: -2.17%

Question: Which “activity change, negative = cytotoxicity” value does the source give for `COC(=O)c1ccc2c(=O)n(NC(C)=O)c(=S)[nH]c2c1` here?
Answer: inactive: 19.7%

Question: Which “activity change, negative = cytotoxicity” value does the source give for `O=C(NC1CCCN(Cc2ccc(Cl)cc2)C1)c1cccc(F)c1` (centres undefined) here?
Answer: inactive: -1.1%

Question: Which Potency does the source give for `CCCC[C@H]1COCCS(=O)(=O)N1Cc1cccc(Cl)c1` here?
Answer: inconclusive: 18.4 µM [cytotoxic, single point] and inconclusive: 29.1 µM [cytotoxic, single point]

Question: Which “activity change, negative = cytotoxicity” value does the source give for `Cc1ccc(S(=O)(=O)N(CC(O)CN(C)C)c2ccccc2)cc1` (centres undefined) here?
Answer: inactive: -4.03%

Question: Which Potency does the source give for `COc1ccc(-c2nnc(CSc3nc4ccccc4c(=O)n3CC(C)C)o2)cc1OC` here?
Answer: active: 20.6 µM

Question: For `O=C(/C=C/c1cccc(F)c1)OCC(=O)N1CCCc2ccccc21`, which Potency is on record?
Answer: inconclusive: 18.4 µM [rising, partial curve, poor fit]

Question: Which Potency does the source give for `O=C(Cn1nnc(-c2cccc(C(F)(F)F)c2)n1)NCc1ccc(F)cc1` here?
Answer: inconclusive: 20.6 µM [rising, single point]

Question: Which “activity change, negative = cytotoxicity” value does the source give for `CCOc1ccccc1-c1ccc(C(=O)NCc2ccc(Cl)cc2)o1` here?
Answer: inactive: 0%

Question: Which “activity change, negative = cytotoxicity” value does the source give for `COc1ccccc1Cc1c(-c2cccc(Cl)c2)nc2c(C)cc(Br)cn12` here?
Answer: inactive: 12.7%

Question: Which Potency does the source give for `Cc1ccc(NC(=O)c2cccc(S(=O)(=O)N3CCN(c4ccc(F)cc4)CC3)c2)nc1` here?
Answer: inconclusive: 7.31 µM [cytotoxic, partial curve]

Question: Which “activity change, negative = cytotoxicity” value does the source give for `Cc1nc2c(ncn2-c2ccccc2)c(=O)n1NC(=O)CN1CCCCC1` here?
Answer: inactive: -7.18%

Question: For `CN1CCN(c2ccc([N+](=O)[O-])cc2C(=O)c2ccccc2)CC1`, which Potency is on record?
Answer: inconclusive: 25.9 µM [cytotoxic, single point]
